# Data as given in paper PMC7819943, “Rice protein-binding microarrays: a tool to detect cis-acting elements near promoter regions in rice”.
# This is one part of the list.
# Target: T1, OsSMF1 (Oryza sativa, UniProt Q6ZLB0 1-436)
# T1 sequence: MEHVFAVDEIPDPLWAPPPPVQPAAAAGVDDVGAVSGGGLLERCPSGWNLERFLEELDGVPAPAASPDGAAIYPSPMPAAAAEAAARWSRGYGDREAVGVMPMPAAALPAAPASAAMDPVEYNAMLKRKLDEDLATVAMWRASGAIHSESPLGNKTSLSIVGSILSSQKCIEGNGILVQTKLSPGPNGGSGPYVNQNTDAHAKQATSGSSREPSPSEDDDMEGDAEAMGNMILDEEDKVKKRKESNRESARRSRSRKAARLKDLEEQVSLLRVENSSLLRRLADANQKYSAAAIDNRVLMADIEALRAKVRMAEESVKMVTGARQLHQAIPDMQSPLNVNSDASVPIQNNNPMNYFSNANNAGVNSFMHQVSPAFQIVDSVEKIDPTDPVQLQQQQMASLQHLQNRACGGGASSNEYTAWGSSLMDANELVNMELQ
# Test: protein-binding microarray (RPBM); PBS, 2% BSA, 51.3 ng/ul salmon testes DNA, 50 uM zinc acetate, 200 nM TF, 25 C, 1 h; high values mean tight binding
# Settings: protein: recombinant; tags: N-terminal polyhistidine and DsRed monomer fusion (pET32a); chain copies: 2; label: CyDye5-dUTP incorporated in the synthesized complementary strand; 3' TTTTT single-stranded linker to array surface; dsDNA, one strand shown
# In short: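 In PBS with 2% BSA, salmon testes DNA and 50 µM zinc acetate, 200 nM protein was incubated on a custom Agilent array at 25 °C for 1 h and then washed off. The array had been made double-stranded by primer extension with Cy5-dUTP and blocked with 2% BSA. The proteins were transcription factors fused N-terminally to polyhistidine and DsRed, expressed in E. coli BL21-CodonPlus and purified on Ni–NTA. The binding signal is per-feature fluorescence intensity (arbitrary units) from an Axon 4000B scanner.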
row,Sequence,binding signal
1,GCTAGCCGGGTGCATTCGTCACTACACTTTTCTAATTTCTCGGAGTCACCTAGTGCAG,3700 fluorescence intensity (a.u.)
2,CTCGGGCCGTGCCGGCACGAGATGCCACGGTTCACATGAGCGGAGTCACCTAGTGCAG,35900 fluorescence intensity (a.u.)
3,CATCGTGCCGCACCCGATTCCTCATCCGCGTCATCTCCACCGGAGTCACCTAGTGCAG,7800 fluorescence intensity (a.u.)
4,TCACGAGCCGCCGCTCGTTACACGTTCGCGCCGTATATTACGGAGTCACCTAGTGCAG,28100 fluorescence intensity (a.u.)
5,TTAATCGTACACTAAGCTTTTACATTAGTACTAGAGCTAACGGAGTCACCTAGTGCAG,3860 fluorescence intensity (a.u.)
6,GCAGCCGGTGACACCACAAAATCCTCTCGCGCTCTCGCTCCGGAGTCACCTAGTGCAG,3900 fluorescence intensity (a.u.)
7,GCATGGTTGTCGCCGCGACACGTGCCGGCGCGCGCACCTCCGGAGTCACCTAGTGCAG,6430 fluorescence intensity (a.u.)
8,CGGTCTCTCGCCTTGTCACCTTACTTGCTTGGCTACTACTCGGAGTCACCTAGTGCAG,5610 fluorescence intensity (a.u.)
9,TCCAAGAAAGTGACCAAGCAAATGACGCAAGTGGTGCACGCGGAGTCACCTAGTGCAG,40200 fluorescence intensity (a.u.)
10,GCCCACTTATGGTGGGCCCCGTGGGCCCCACGTGTCACTTCGGAGTCACCTAGTGCAG,16100 fluorescence intensity (a.u.)
11,ACCAACGGCCCGAGTCCGACACACGTCTCACGCACGAGCACGGAGTCACCTAGTGCAG,3910 fluorescence intensity (a.u.)
12,TGAGTTATGCTGTATACACATAATCTGTTGTTTCTCTAAACGGAGTCACCTAGTGCAG,3860 fluorescence intensity (a.u.)
13,TATTGGGTATTCCCATGGAAATGGTTGGTTTCGTGCTCTGCGGAGTCACCTAGTGCAG,3900 fluorescence intensity (a.u.)
14,GTAAGAATTGGCTGTTAGATTGGCTATAAATGAATTGGAGCGGAGTCACCTAGTGCAG,50800 fluorescence intensity (a.u.)
15,GGAGACCATCGCCCCTGTTCTCGTCGTCATCGCGGAGGTTCGGAGTCACCTAGTGCAG,4210 fluorescence intensity (a.u.)
16,AAAGGGAAGTTAATGGGTACGAGGAAGGATGACGTGGCGGCGGAGTCACCTAGTGCAG,29000 fluorescence intensity (a.u.)
17,AGAAGCCCACCACCACGCGCGGAGCGGCCGAGGAGGCCTCCGGAGTCACCTAGTGCAG,4450 fluorescence intensity (a.u.)
18,TTCCTCGGATTCTTGGCGCGCATGACGTCGTAGACCCGGACGGAGTCACCTAGTGCAG,5300 fluorescence intensity (a.u.)
19,CCTCACGAGCTTATCTAAGCCTGTCGCAATCTTGCTTCGGCGGAGTCACCTAGTGCAG,3510 fluorescence intensity (a.u.)
20,CAACAACACCAGCTCAGCCCATCGGAACCGAAACGCAGCGCGGAGTCACCTAGTGCAG,3270 fluorescence intensity (a.u.)
21,TCCCATGCCGCGCTCGTCGATCCCCAAATCTCGCCGCCGGCGGAGTCACCTAGTGCAG,4020 fluorescence intensity (a.u.)

row,Sequence,binding signal
1,AAAACAAATATAGAGGAGACAGCTCATTTTATTTCCTTGACGGAGTCACCTAGTGCAG,3340 fluorescence intensity (a.u.)
2,TGGCGATGGCGAACGCCTTGAACGGCATCGCGAACGCCGCCGGAGTCACCTAGTGCAG,3150 fluorescence intensity (a.u.)
3,TCGCCATGGACGCCCATCCACTTGTCACGCACCATACACACGGAGTCACCTAGTGCAG,3960 fluorescence intensity (a.u.)
4,CACATGCCTAGCCGCCGCCGGTCGCCTCACTTCCCTAGCCCGGAGTCACCTAGTGCAG,31800 fluorescence intensity (a.u.)
5,TTGCATTGCCACGGGAACGTGTGGTGGTGGTGGATCGGTACGGAGTCACCTAGTGCAG,3540 fluorescence intensity (a.u.)
6,ATTGCTAACAGATAGTGAATGTCACGTGTTACTTCGTTAGCGGAGTCACCTAGTGCAG,3230 fluorescence intensity (a.u.)
7,ATTGTTCGATGTGCTCCAACTCAGCAAAGTGGTGCATGCACGGAGTCACCTAGTGCAG,6480 fluorescence intensity (a.u.)
8,CCTCTCGTGGCATCGCATCGCATCGTGTCCTCTGCGACTGCGGAGTCACCTAGTGCAG,3630 fluorescence intensity (a.u.)
9,GGACCCCACACCGCCTCGTCTCGTGAACCGGCGCTACTACCGGAGTCACCTAGTGCAG,3190 fluorescence intensity (a.u.)
10,CCATCACCTCGTCGTCCCCGTCACCGCGCCTCTCCCGCTGCGGAGTCACCTAGTGCAG,3780 fluorescence intensity (a.u.)
11,CAGACGATCTCCCGCTGACGCGTGGGCCCCACCTCTCCTCCGGAGTCACCTAGTGCAG,6480 fluorescence intensity (a.u.)
12,GGTCTCCAAGTTGCGCAATATTTAAACCAGCAGGCGTGGTCGGAGTCACCTAGTGCAG,31500 fluorescence intensity (a.u.)
13,TCTTTTGGTAAACATCTATATTTCAAGTGCAACAAATTAACGGAGTCACCTAGTGCAG,32300 fluorescence intensity (a.u.)
14,TTTTGCGCCACAATCCACGTTGGTTGTTGAGGTTTATATACGGAGTCACCTAGTGCAG,3190 fluorescence intensity (a.u.)
15,ATACTTCCATTTGTGCCATACATTTTGTCATTTCGACCTGCGGAGTCACCTAGTGCAG,3330 fluorescence intensity (a.u.)
16,TTCCCCAAACCCCAGAGTTTGAGTATGCGTCAAATGGTGGCGGAGTCACCTAGTGCAG,4090 fluorescence intensity (a.u.)
17,GCTCAAATACAGGAAAGTCAGTCCATCCCGCACCAGGCCCCGGAGTCACCTAGTGCAG,3350 fluorescence intensity (a.u.)
18,CTTCGATCACCAAATCGCCACATCAATTACAACTTATAGTCGGAGTCACCTAGTGCAG,3180 fluorescence intensity (a.u.)
19,CGTAAAAGGACAGGTTACAAACAAGTGGTGGCAATCCTCGCGGAGTCACCTAGTGCAG,3320 fluorescence intensity (a.u.)
20,CACCATCCTGAACTGAATTGCCTGCACCTAGCCACATCATCGGAGTCACCTAGTGCAG,4710 fluorescence intensity (a.u.)
21,CGGCCGTTGGGCAGCGGCGGTAGGTAGAACCCTGACGACGCGGAGTCACCTAGTGCAG,3990 fluorescence intensity (a.u.)

# Part of the list above, bar-delimited.
row | Sequence | binding signal
13 | TCTTTTGGTAAACATCTATATTTCAAGTGCAACAAATTAACGGAGTCACCTAGTGCAG | 32300 fluorescence intensity (a.u.)
14 | TTTTGCGCCACAATCCACGTTGGTTGTTGAGGTTTATATACGGAGTCACCTAGTGCAG | 3190 fluorescence intensity (a.u.)
19 | CGTAAAAGGACAGGTTACAAACAAGTGGTGGCAATCCTCGCGGAGTCACCTAGTGCAG | 3320 fluorescence intensity (a.u.)
